These are yes or no findings as the source states them, for the method shown. In cells and extracts the contact can be indirect. Some entries that bind do so weakly or less than the wild type. For some of these results: Where a sequence is shown, tags or fusion partners need not be part of it.
T1: Spc105^222::mCherry (budding yeast) (UniProt P53148)
T1 sequence: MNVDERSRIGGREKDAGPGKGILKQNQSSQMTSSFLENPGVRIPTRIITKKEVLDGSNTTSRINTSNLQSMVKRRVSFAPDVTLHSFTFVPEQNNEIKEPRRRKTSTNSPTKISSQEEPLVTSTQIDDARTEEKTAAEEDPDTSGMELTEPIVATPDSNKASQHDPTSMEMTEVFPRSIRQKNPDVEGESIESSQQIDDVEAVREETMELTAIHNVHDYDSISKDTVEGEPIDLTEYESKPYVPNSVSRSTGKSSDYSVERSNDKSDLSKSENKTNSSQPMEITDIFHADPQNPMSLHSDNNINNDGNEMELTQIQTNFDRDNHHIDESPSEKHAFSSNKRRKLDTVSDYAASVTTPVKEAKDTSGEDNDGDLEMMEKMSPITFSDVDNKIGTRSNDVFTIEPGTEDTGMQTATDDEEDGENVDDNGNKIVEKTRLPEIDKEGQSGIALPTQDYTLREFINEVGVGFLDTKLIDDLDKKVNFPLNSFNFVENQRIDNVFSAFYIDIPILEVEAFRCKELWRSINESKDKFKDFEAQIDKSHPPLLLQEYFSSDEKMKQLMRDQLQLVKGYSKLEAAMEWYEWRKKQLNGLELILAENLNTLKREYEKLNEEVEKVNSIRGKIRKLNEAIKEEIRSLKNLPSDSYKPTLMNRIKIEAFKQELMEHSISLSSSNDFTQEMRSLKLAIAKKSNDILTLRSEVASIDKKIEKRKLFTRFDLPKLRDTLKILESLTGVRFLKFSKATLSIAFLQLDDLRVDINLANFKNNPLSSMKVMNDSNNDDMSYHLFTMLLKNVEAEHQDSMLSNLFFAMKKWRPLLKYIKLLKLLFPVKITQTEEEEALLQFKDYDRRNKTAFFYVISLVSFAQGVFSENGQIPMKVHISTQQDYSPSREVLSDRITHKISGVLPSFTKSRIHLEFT

T2: Dsn1-His-Flag (budding yeast), P40568
T2 chain: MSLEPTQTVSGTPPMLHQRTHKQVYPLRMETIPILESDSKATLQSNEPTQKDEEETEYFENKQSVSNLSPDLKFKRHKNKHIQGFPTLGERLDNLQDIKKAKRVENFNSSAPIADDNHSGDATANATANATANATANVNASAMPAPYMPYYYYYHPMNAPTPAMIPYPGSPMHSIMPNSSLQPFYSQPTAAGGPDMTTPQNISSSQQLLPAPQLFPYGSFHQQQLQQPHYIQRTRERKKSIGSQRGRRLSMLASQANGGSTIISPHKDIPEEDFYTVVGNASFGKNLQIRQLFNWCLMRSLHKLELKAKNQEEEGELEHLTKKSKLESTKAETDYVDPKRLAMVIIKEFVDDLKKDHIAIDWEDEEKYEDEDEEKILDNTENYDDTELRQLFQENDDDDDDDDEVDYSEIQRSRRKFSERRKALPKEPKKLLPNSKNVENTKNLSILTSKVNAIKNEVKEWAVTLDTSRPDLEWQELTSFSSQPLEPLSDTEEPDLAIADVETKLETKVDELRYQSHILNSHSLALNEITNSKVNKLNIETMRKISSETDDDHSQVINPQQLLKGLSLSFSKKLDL

T3: Dsn1-His-Flag (budding yeast) (UniProt P40568)
T3 sequence: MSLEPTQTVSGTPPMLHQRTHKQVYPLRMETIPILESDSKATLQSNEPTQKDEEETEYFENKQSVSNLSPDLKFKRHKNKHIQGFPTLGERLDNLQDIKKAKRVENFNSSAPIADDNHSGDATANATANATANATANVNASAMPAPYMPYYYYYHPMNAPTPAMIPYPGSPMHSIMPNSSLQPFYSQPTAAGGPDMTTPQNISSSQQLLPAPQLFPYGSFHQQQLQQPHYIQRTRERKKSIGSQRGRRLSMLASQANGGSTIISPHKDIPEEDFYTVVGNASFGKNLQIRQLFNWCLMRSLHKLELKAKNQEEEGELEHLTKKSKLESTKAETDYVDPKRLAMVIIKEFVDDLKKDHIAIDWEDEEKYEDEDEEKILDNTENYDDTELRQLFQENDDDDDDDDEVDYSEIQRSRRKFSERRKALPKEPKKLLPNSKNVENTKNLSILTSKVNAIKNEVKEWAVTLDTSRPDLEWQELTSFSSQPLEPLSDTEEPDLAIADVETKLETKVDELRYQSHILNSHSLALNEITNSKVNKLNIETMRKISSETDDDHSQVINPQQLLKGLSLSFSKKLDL


Key:
Assay in all cases: co-IP
[1] = target: T1, Spc105^222::mCherry (budding yeast)
[2] = target: T2, Dsn1-His-Flag (budding yeast), P40568; conditions: remark: other sources report otherwise
[3] = target: T3, Dsn1-His-Flag (budding yeast)

Row | binding [3] | Molecule | further results
1 | – | Glc7-3xGFP (from UniProt P32598 1-312) (enzyme) | binding [1]: binds
2 | – | Glc7-3xGFP, P32598 1-312 (enzyme) MDSQPVDVDNIIDRLLEVRGSKPGQQVDLEENEIRYLCSKARSIFIKQPILLELEAPIKICGDIHGQYYDLLRLFEYGGFPPESNYLFLGDYVDRGKQSLETICLLLAYKIKYPENFFILRGNHECASINRIYGFYDECKRRYNIKLWKTFTDCFNCLPIAAIIDEKIFCMHGGLSPDLNSMEQIRRVMRPTDIPDVGLLCDLLWSDPDKDIVGWSENDRGVSFTFGPDVVNRFLQKQDMELICRAHQVVEDGYEFFSKRQLVTLFSAPNYCGEFDNAGAMMSVDESLLCSFQILKPAQKSLPRQAGGRKKK | binding [2]: binds
3 | binds | Spc105^222::mCherry (protein, UniProt P53148 1-917) MNVDERSRIGGREKDAGPGKGILKQNQSSQMTSSFLENPGVRIPTRIITKKEVLDGSNTTSRINTSNLQSMVKRRVSFAPDVTLHSFTFVPEQNNEIKEPRRRKTSTNSPTKISSQEEPLVTSTQIDDARTEEKTAAEEDPDTSGMELTEPIVATPDSNKASQHDPTSMEMTEVFPRSIRQKNPDVEGESIESSQQIDDVEAVREETMELTAIHNVHDYDSISKDTVEGEPIDLTEYESKPYVPNSVSRSTGKSSDYSVERSNDKSDLSKSENKTNSSQPMEITDIFHADPQNPMSLHSDNNINNDGNEMELTQIQTNFDRDNHHIDESPSEKHAFSSNKRRKLDTVSDYAASVTTPVKEAKDTSGEDNDGDLEMMEKMSPITFSDVDNKIGTRSNDVFTIEPGTEDTGMQTATDDEEDGENVDDNGNKIVEKTRLPEIDKEGQSGIALPTQDYTLREFINEVGVGFLDTKLIDDLDKKVNFPLNSFNFVENQRIDNVFSAFYIDIPILEVEAFRCKELWRSINESKDKFKDFEAQIDKSHPPLLLQEYFSSDEKMKQLMRDQLQLVKGYSKLEAAMEWYEWRKKQLNGLELILAENLNTLKREYEKLNEEVEKVNSIRGKIRKLNEAIKEEIRSLKNLPSDSYKPTLMNRIKIEAFKQELMEHSISLSSSNDFTQEMRSLKLAIAKKSNDILTLRSEVASIDKKIEKRKLFTRFDLPKLRDTLKILESLTGVRFLKFSKATLSIAFLQLDDLRVDINLANFKNNPLSSMKVMNDSNNDDMSYHLFTMLLKNVEAEHQDSMLSNLFFAMKKWRPLLKYIKLLKLLFPVKITQTEEEEALLQFKDYDRRNKTAFFYVISLVSFAQGVFSENGQIPMKVHISTQQDYSPSREVLSDRITHKISGVLPSFTKSRIHLEFT | –
4 | binds | Spc105^(BPM, 222::mCherry) (protein, UniProt P53148 1-917) MNVDERSRIGGREKDAGPGKGILKQNQSSQMTSSFLENPGVRIPTRIITKKEVLDGSNTTSRINTSNLQSMVKRRVSFAPDVTLHSFTFVPEQNNEIKEPAAAATSTNSPTKISSQEEPLVTSTQIDDARTEEKTAAEEDPDTSGMELTEPIVATPDSNKASQHDPTSMEMTEVFPRSIRQKNPDVEGESIESSQQIDDVEAVREETMELTAIHNVHDYDSISKDTVEGEPIDLTEYESKPYVPNSVSRSTGKSSDYSVERSNDKSDLSKSENKTNSSQPMEITDIFHADPQNPMSLHSDNNINNDGNEMELTQIQTNFDRDNHHIDESPSEKHAFSSNAAAALDTVSDYAASVTTPVKEAKDTSGEDNDGDLEMMEKMSPITFSDVDNKIGTRSNDVFTIEPGTEDTGMQTATDDEEDGENVDDNGNKIVEKTRLPEIDKEGQSGIALPTQDYTLREFINEVGVGFLDTKLIDDLDKKVNFPLNSFNFVENQRIDNVFSAFYIDIPILEVEAFRCKELWRSINESKDKFKDFEAQIDKSHPPLLLQEYFSSDEKMKQLMRDQLQLVKGYSKLEAAMEWYEWRKKQLNGLELILAENLNTLKREYEKLNEEVEKVNSIRGKIRKLNEAIKEEIRSLKNLPSDSYKPTLMNRIKIEAFKQELMEHSISLSSSNDFTQEMRSLKLAIAKKSNDILTLRSEVASIDKKIEKRKLFTRFDLPKLRDTLKILESLTGVRFLKFSKATLSIAFLQLDDLRVDINLANFKNNPLSSMKVMNDSNNDDMSYHLFTMLLKNVEAEHQDSMLSNLFFAMKKWRPLLKYIKLLKLLFPVKITQTEEEEALLQFKDYDRRNKTAFFYVISLVSFAQGVFSENGQIPMKVHISTQQDYSPSREVLSDRITHKISGVLPSFTKSRIHLEFT | –
